Source: PubChem BioAssay AID1224828 (NIAID, 2016)
Assay: 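Knock-downs that increase or decrease LPS-induced p65 nuclear translocation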 (primary screen). Cells: mouse RAW264.7 G9 macrophage reporter cells (GFP-p65, Tnf promoter-mCherry). Reagent: siRNA pool against mouse genes, 100 nM. Timing: 2 days siRNA transfection, then 40 min LPS before fixation. Challenge: LPS (Salmonella minnesota R595) at 10 ng/ml. Detection: 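Microscopy ratio of nuclear to perinuclear-ring GFP-p65 signal, scaled to the plate median; gene score is the average of two replicate robust z-scores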. Scale: p65 translocation robust z-score: higher = more nuclear NF-kappaB p65 after LPS than the plate median; nuclear/cytoplasmic p65 ratio: higher = more nuclear NF-kappaB p65. Call rule: 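Called active when z exceeds 3.3 or falls under -1.56 (median of Tlr4 controls), giving activity score of at least 50; no calls for control wells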. Calls: active = hit (p65 shift raised or lowered); inactive = no clear change.
In all, the deposit lists about 17,000 reagents; shown is a random part of them. In the full data, 762 (4.5%) are marked active. 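Active calls include both raised and lowered p65 entry, mostly lowered; wells with fewer than 50 cells lack a z-score.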 The raw values are shown without normalisation. The numbers tell different reagents against one gene apart. A reagent listed more than once was tested more than once; the source does not tell the runs apart.

gene knocked down | reagent no. | p65 translocation robust z-score | nuclear/cytoplasmic p65 ratio, rep 1 | nuclear/cytoplasmic p65 ratio, rep 2 | low cell count flag | Call
Mei4 (GeneID 75033) | 1 | – | 1.16 | 1.16 | fewer than 50 cells per well; well left out of scoring | inactive
Snupn (GeneID 66069) | 1 | 0.88 | 1.64 | 1.64 | enough cells to score | inactive
Cdc42se1 (GeneID 57912) | 1 | 0.59 | 1.58 | 1.69 | enough cells to score | inactive
Cebpb (GeneID 12608) | 1 | -1.86 | 1.42 | 1.14 | enough cells to score | active
Col4a4 (GeneID 12829) | 1 | -1.51 | 1.32 | 1.13 | enough cells to score | inactive
Col4a4 (GeneID 12829) | 2 | – | 1.03 | 2.26 | fewer than 50 cells per well; well left out of scoring | inactive
Smarcd1 (GeneID 83797) | 1 | 0.63 | 1.62 | 1.67 | enough cells to score | inactive
Fcer2a (GeneID 14128) | 1 | -1.36 | 1.28 | 1.2 | enough cells to score | inactive
Calm2 (GeneID 12314) | 1 | 1.34 | 1.73 | 1.9 | enough cells to score | inactive
Socs3 (GeneID 12702) | 1 | 0.15 | 1.39 | 1.76 | enough cells to score | inactive
Slc25a21 (GeneID 217593) | 1 | -0.49 | 1.29 | 1.24 | enough cells to score | inactive
Ppp1r3f (GeneID 54646) | 1 | -0.66 | 1.58 | 1.14 | enough cells to score | inactive
Tmpo (GeneID 21917) | 1 | 1.29 | 1.46 | 1.4 | enough cells to score | inactive
Pan3 (GeneID 72587) | 1 | – | 1.6 | 2.04 | fewer than 50 cells per well; well left out of scoring | inactive
A930017M01Rik (GeneID 239410) | 1 | 2.16 | 1.67 | 1.81 | enough cells to score | inactive
Pttg1ip (GeneID 108705) | 1 | 0.07 | 1.6 | 1.45 | enough cells to score | inactive
Abcg3 (GeneID 27405) | 1 | 0.58 | 1.69 | 1.78 | enough cells to score | inactive
Ccdc88c (GeneID 68339) | 1 | -0.43 | 1.39 | 1.48 | enough cells to score | inactive
Bhlha15 (GeneID 17341) | 1 | 0.08 | 1.68 | 1.6 | enough cells to score | inactive
Pgm2 (GeneID 66681) | 1 | – | 1.08 | 1.05 | fewer than 50 cells per well; well left out of scoring | inactive
Pnliprp1 (GeneID 18946) | 1 | -1.76 | 1.07 | 1.35 | enough cells to score | active
Or5d18 (GeneID 117004) | 1 | – | 1.5 | 1.32 | fewer than 50 cells per well; well left out of scoring | inactive
Ascl2 (GeneID 17173) | 1 | – | 1.2 | 1.31 | fewer than 50 cells per well; well left out of scoring | inactive
Scart1 (GeneID 244233) | 1 | – | 1.24 | 1.43 | fewer than 50 cells per well; well left out of scoring | inactive
4930555G01Rik (GeneID 108978) | 1 | – | 1.15 | 1.38 | fewer than 50 cells per well; well left out of scoring | inactive
Zbtb3 (GeneID 75291) | 1 | 1.05 | 1.6 | 1.33 | enough cells to score | inactive
Bdkrb2 (GeneID 12062) | 1 | -0.13 | 1.78 | 1.28 | enough cells to score | inactive
Bdkrb2 (GeneID 12062) | 1 | -0.81 | 1.37 | 1.49 | enough cells to score | inactive
Rhobtb2 (GeneID 246710) | 1 | 6.02 | 1.56 | 3.13 | enough cells to score | active
Krtap6-2 (GeneID 16701) | 1 | -0.16 | 1.48 | 1.45 | enough cells to score | inactive
Bop1 (GeneID 12181) | 1 | -0.25 | 1.39 | 1.49 | enough cells to score | inactive
Gm5094 (GeneID 328839) | 1 | 2.55 | 1.42 | 1.88 | enough cells to score | inactive
Tnfrsf11a (GeneID 21934) | 1 | 0.82 | 1.62 | 1.65 | enough cells to score | inactive
Ndufs1 (GeneID 227197) | 1 | 1.75 | 1.45 | 1.56 | enough cells to score | inactive
Satb2 (GeneID 212712) | 1 | -0.23 | 1.39 | 1.12 | enough cells to score | inactive
Slc32a1 (GeneID 22348) | 1 | 0.83 | 1.45 | 1.36 | enough cells to score | inactive
Prr36 (GeneID 73072) | 1 | 0.77 | 1.92 | 1.58 | enough cells to score | inactive
Hr (GeneID 15460) | 1 | -0.71 | 1.28 | 1.34 | enough cells to score | inactive
Trpv3 (GeneID 246788) | 1 | – | 1.32 | 1.34 | fewer than 50 cells per well; well left out of scoring | inactive
Pex7 (GeneID 18634) | 1 | 1.2 | 1.63 | 1.55 | enough cells to score | inactive
Plch1 (GeneID 269437) | 1 | 1.45 | 1.91 | 1.79 | enough cells to score | inactive
Sorbs3 (GeneID 20410) | 1 | 0.95 | 1.73 | 1.65 | enough cells to score | inactive
Slf1 (GeneID 105377) | 1 | 0.55 | 1.61 | 1.85 | enough cells to score | inactive
Kcna5 (GeneID 16493) | 1 | 0.45 | 1.57 | 1.41 | enough cells to score | inactive
Fosl2 (GeneID 14284) | 1 | 0.95 | 1.69 | 1.51 | enough cells to score | inactive
Fam221b (GeneID 242408) | 1 | -1.99 | 1.04 | 1.05 | enough cells to score | active
Coq10b (GeneID 67876) | 1 | 0.66 | 1.59 | 1.51 | enough cells to score | inactive
Cox7a2l (GeneID 20463) | 1 | 0.81 | 1.74 | 1.86 | enough cells to score | inactive
Vmn1r210 (GeneID 171269) | 1 | -0.04 | 1.38 | 1.17 | enough cells to score | inactive
H1f6 (GeneID 107970) | 1 | -0.35 | 1.44 | 1.63 | enough cells to score | inactive
Glp2r (GeneID 93896) | 1 | 0.08 | 1.53 | 1.58 | enough cells to score | inactive
Ostc (GeneID 66357) | 1 | – | 1.18 | 1.16 | fewer than 50 cells per well; well left out of scoring | inactive
Adck1 (GeneID 72113) | 1 | 0.05 | 1.56 | 1.75 | enough cells to score | inactive
Cc2d1b (GeneID 319965) | 1 | 0.58 | 1.32 | 1.61 | enough cells to score | inactive
Sh3bp4 (GeneID 98402) | 1 | 1.19 | 1.65 | 1.8 | enough cells to score | inactive
Kcne5 (GeneID 66240) | 1 | 0.7 | 1.54 | 1.5 | enough cells to score | inactive
Inf2 (GeneID 70435) | 1 | -1.67 | 1.18 | 1.24 | enough cells to score | active
Plet1 (GeneID 76509) | 1 | – | 1.24 | 1.28 | fewer than 50 cells per well; well left out of scoring | inactive
D930030D11Rik (GeneID 320874) | 1 | -0.64 | 1.41 | 1.52 | enough cells to score | inactive

Copied from the listing (4 entries):
gene knocked down | reagent no. | p65 translocation robust z-score | nuclear/cytoplasmic p65 ratio, rep 1 | nuclear/cytoplasmic p65 ratio, rep 2 | low cell count flag | Call
Snupn (GeneID 66069) | 1 | 0.88 | 1.64 | 1.64 | enough cells to score | inactive
Cdc42se1 (GeneID 57912) | 1 | 0.59 | 1.58 | 1.69 | enough cells to score | inactive
Cebpb (GeneID 12608) | 1 | -1.86 | 1.42 | 1.14 | enough cells to score | active
Col4a4 (GeneID 12829) | 1 | -1.51 | 1.32 | 1.13 | enough cells to score | inactive
